The list shows a part of the results.

The chains behind the UniProt entries cited, without tags or fusion partners. Where a name states a change or a piece, a line headed by the entry shows the natural chain unless it says otherwise.
UniProt Q9NYV6: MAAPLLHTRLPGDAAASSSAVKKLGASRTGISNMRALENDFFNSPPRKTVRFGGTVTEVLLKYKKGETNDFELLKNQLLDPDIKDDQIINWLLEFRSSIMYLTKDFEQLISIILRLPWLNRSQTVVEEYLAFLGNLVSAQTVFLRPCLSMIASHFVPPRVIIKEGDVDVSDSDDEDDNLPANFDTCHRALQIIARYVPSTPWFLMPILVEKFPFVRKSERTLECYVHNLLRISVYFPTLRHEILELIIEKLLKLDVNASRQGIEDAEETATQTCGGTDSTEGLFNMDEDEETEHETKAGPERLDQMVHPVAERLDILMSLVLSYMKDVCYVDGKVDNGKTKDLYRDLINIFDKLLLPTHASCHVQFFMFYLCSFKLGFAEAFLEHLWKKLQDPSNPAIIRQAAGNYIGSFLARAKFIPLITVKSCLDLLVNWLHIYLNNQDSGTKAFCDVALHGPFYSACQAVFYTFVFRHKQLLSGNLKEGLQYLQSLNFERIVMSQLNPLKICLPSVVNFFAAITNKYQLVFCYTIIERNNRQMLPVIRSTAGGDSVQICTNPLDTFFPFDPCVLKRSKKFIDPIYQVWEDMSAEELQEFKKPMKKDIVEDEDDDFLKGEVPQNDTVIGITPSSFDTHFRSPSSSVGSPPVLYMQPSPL
UniProt O75582, whole entry, looked up: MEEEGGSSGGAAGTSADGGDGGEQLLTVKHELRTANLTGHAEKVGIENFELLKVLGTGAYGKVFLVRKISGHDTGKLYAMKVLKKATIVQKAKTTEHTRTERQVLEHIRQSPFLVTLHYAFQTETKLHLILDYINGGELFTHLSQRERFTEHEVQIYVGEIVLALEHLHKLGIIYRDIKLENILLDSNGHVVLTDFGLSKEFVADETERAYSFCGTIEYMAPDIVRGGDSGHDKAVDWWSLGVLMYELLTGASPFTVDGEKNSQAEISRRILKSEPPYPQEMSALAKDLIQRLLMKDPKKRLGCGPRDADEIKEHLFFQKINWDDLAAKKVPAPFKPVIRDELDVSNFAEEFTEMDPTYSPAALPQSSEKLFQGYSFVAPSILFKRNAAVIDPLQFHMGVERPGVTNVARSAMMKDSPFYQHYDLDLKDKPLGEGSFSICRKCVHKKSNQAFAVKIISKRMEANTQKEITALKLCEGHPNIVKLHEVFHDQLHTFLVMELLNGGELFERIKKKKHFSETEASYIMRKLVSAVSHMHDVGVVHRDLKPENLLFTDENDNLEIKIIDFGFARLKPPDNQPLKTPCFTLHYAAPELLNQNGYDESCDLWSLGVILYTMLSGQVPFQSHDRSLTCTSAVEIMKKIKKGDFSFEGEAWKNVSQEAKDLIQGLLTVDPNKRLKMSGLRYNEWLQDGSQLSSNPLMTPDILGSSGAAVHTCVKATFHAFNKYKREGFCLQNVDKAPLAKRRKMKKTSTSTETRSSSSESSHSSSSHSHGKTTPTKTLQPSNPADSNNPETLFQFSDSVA
UniProt Q96T51: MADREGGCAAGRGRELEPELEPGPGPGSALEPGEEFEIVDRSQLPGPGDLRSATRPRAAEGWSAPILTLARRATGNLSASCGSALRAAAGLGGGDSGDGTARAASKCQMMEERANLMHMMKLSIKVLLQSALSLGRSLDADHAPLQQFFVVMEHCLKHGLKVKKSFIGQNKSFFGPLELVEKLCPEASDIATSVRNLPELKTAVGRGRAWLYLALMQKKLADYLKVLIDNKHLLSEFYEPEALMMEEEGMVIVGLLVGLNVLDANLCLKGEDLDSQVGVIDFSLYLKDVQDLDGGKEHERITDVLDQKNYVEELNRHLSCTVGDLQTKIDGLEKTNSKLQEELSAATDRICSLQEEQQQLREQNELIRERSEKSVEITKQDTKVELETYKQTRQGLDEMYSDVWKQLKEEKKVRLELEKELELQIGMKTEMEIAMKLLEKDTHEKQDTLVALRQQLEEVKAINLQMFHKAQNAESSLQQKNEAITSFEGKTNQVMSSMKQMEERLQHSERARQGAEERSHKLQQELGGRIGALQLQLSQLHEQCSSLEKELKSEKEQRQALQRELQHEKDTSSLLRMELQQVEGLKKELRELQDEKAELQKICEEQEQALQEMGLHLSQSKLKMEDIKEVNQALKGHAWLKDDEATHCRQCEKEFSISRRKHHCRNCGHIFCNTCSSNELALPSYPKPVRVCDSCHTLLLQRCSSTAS
UniProt P28702: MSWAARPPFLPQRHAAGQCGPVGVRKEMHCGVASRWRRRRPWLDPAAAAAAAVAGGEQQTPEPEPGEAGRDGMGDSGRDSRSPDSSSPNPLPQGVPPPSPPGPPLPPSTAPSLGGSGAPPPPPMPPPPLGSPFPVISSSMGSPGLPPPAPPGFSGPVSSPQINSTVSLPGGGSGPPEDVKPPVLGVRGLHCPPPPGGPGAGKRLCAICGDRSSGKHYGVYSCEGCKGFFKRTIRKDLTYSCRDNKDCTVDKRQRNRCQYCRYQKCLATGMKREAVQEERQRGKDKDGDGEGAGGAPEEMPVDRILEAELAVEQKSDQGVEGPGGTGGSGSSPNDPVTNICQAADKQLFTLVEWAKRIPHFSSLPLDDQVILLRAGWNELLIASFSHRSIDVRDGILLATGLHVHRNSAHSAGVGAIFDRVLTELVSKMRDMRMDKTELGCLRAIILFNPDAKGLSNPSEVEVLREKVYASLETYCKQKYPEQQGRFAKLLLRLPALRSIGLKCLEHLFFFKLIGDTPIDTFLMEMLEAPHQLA
UniProt Q92599: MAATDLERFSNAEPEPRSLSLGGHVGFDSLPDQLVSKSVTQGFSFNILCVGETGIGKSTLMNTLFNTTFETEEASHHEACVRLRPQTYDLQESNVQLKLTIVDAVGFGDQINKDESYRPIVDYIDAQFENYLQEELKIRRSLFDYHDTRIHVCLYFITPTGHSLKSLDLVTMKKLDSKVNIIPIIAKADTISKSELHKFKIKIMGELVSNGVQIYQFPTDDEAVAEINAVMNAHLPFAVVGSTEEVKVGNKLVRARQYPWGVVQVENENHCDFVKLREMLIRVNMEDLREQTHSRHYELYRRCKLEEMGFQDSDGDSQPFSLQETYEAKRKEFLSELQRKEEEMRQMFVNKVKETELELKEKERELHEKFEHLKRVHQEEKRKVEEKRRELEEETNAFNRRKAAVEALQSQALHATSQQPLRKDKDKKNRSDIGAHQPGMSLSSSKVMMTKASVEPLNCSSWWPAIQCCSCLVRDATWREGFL
UniProt Q92791: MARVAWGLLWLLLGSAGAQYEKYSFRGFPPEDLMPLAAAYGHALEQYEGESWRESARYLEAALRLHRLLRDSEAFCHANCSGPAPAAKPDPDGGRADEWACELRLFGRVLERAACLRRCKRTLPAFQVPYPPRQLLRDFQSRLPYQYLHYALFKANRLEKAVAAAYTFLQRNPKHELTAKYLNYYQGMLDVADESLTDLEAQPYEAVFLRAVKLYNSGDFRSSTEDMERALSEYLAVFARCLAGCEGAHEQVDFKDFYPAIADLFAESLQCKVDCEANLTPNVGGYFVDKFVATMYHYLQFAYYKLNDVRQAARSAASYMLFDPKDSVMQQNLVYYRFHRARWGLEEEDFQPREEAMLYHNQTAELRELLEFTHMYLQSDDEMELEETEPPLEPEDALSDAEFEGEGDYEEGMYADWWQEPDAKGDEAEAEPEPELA
UniProt O75676: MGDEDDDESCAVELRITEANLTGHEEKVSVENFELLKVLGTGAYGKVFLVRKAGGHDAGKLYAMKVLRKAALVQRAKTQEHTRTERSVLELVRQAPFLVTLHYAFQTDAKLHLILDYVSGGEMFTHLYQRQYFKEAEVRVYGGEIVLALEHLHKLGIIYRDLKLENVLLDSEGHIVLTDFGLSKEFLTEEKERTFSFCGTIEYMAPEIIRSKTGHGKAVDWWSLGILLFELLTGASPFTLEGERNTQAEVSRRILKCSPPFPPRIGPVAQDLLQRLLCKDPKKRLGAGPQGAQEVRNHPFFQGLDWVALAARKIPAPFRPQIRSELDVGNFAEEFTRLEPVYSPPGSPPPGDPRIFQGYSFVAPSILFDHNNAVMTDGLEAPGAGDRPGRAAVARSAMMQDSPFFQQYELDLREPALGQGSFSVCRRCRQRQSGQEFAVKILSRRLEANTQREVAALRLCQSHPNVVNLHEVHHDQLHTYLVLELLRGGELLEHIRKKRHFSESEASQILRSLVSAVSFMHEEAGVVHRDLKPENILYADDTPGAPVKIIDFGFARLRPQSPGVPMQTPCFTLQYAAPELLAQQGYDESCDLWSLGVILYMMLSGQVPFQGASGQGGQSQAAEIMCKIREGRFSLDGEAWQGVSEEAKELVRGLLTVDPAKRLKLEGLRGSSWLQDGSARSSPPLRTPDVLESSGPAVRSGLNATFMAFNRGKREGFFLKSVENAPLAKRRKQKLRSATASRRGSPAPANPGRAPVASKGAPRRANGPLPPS
UniProt P60602: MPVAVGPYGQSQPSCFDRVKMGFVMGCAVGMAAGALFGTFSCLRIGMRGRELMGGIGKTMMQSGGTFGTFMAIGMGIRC
UniProt Q9UBE0: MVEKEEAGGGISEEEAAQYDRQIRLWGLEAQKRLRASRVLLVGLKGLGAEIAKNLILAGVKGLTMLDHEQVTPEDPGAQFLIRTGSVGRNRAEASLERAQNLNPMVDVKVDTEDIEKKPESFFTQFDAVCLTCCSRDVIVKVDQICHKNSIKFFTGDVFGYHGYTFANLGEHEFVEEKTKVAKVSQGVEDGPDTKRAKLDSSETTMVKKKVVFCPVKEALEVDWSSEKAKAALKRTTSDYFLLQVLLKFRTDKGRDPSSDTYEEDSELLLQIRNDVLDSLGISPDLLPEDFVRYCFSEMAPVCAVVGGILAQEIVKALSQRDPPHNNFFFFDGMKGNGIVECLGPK
UniProt Q9HCN8: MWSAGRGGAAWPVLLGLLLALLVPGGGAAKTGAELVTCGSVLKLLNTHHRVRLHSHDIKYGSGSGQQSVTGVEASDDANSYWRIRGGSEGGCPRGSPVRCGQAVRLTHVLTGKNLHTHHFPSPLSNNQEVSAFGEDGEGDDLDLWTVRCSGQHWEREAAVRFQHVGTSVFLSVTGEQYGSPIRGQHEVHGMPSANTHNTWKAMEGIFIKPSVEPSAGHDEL
UniProt Q9BY50: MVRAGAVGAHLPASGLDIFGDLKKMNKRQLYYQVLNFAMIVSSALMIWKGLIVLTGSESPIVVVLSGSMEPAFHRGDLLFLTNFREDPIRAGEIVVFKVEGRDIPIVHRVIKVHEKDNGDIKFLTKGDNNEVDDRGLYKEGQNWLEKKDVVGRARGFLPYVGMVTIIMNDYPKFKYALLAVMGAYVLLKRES
UniProt Q8IZE3: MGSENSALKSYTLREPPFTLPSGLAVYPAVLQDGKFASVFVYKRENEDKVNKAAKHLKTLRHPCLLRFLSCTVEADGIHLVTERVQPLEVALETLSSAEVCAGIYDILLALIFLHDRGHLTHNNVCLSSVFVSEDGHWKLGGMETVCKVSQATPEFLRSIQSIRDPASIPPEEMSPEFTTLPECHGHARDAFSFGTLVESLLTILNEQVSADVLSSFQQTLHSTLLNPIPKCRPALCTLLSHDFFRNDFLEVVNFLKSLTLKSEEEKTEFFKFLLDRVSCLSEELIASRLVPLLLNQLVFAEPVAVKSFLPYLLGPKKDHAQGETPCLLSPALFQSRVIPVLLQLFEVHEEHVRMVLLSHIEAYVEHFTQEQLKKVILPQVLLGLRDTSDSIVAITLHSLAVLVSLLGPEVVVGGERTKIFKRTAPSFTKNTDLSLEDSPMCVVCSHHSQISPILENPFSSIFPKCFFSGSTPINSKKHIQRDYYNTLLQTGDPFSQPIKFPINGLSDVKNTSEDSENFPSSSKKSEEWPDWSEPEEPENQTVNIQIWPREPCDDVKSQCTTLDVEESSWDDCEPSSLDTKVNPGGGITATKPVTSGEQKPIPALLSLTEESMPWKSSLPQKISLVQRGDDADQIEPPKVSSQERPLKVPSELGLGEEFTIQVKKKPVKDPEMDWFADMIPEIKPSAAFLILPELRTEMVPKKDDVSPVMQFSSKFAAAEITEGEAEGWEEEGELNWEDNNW
UniProt P19793: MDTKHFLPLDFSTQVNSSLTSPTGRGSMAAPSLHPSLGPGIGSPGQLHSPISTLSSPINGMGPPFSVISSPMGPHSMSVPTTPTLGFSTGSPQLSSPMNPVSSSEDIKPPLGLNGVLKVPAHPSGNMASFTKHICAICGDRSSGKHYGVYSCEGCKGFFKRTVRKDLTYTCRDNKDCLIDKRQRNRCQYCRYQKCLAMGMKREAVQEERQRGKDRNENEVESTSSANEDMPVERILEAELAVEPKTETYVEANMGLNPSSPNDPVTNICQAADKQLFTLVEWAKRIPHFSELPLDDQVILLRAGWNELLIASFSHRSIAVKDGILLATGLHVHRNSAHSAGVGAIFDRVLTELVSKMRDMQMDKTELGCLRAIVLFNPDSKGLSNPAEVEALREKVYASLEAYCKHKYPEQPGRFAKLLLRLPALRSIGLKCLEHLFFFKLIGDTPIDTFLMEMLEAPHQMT
UniProt O00422: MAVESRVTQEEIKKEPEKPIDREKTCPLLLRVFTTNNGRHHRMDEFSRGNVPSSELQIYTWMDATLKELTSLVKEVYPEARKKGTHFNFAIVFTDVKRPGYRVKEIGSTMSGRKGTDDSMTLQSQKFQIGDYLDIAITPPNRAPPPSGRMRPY

Compound in this test: COc1ccc(Cn2ccc3cc(C)c(C(=O)NO)cc32)cc1
Kind of test: dose-dependent thermal stabilisation call (2D-TPP, DLPTP, 10% FDR) (binary (1 = stabilised)); higher = stabilised by the compound. As to conditions: system: HL-60 intact cells; concentration range 0.04-10 µM. On the procedure:
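2D thermal proteome profiling in intact HL-60 cells treated with BRD-3811 (0, 0.04, 0.29, 2, 10 uM) for 90 min at 37 C, then heated 3 min at one of 12 temperatures (42-63.9 C). Soluble protein was quantified by TMT10 MS. The value is the DLPTP call of the paper: dose-dependent thermal stabilisation over all temperatures at 10% FDR (F-test of a dose-response against a flat model); one experiment, one call per tested protein.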
As to RRM1 (UniProt P23921), the “dose-dependent thermal stabilisation call” value was inactive: 0.
To SCRIB belongs inactive: 0; to SAMD1 (UniProt Q6SPF0), inactive: 0; to RPS9 (UniProt P46781), inactive: 0.
With SAPS2 (UniProt O75170) the figure was inactive: 0.
Regarding RRN3 (UniProt Q9NYV6), the “dose-dependent thermal stabilisation call” value is inactive: 0.
In the case of RPS6KA5 (UniProt O75582), the “dose-dependent thermal stabilisation call” value is inactive: 0.
With RUFY1 (UniProt Q96T51), the “dose-dependent thermal stabilisation call” value is inactive: 0.
With RP5-1000E10 4 the figure was inactive: 0; with RPS20 (UniProt P60866), inactive: 0; with RXRB (UniProt P28702), inactive: 0.
Take RPSA (UniProt P08865): the “dose-dependent thermal stabilisation call” value is inactive: 0.
To SEPT8 (UniProt Q92599) belongs inactive: 0; to RNPS1 (UniProt Q15287), inactive: 0; to SC65 (UniProt Q92791), inactive: 0.
With RPS6KA4 (UniProt O75676), the “dose-dependent thermal stabilisation call” value is inactive: 0.
Take RP2 (UniProt O75695): the “dose-dependent thermal stabilisation call” value is inactive: 0.
With RUVBL2 (UniProt Q9Y230) the figure was inactive: 0; with RRP12 (UniProt Q5JTH9), inactive: 0; with RPS6KB2 (UniProt Q9UBS0), inactive: 0.
To RSAD1 (UniProt Q9HA92) belongs inactive: 0; to RPS5 (UniProt P46782), inactive: 0; to SCCPDH (UniProt Q8NBX0), inactive: 0.
To RPL9 (UniProt P32969) belongs inactive: 0; to SBF1 (UniProt O95248), inactive: 0; to ROMO1 (UniProt P60602), inactive: 0.
For the target SERGEF (UniProt Q9UGK8), the “dose-dependent thermal stabilisation call” value is inactive: 0.
Consider SCNM1 (UniProt Q9BWG6), for which the “dose-dependent thermal stabilisation call” value was inactive: 0.
For SAE1 (UniProt Q9UBE0), the “dose-dependent thermal stabilisation call” value was inactive: 0.
For SDF2L1 (UniProt Q9HCN8), the “dose-dependent thermal stabilisation call” value is inactive: 0.
Consider SEC11C (UniProt Q9BY50), for which the “dose-dependent thermal stabilisation call” value is inactive: 0.
For SCYL3 (UniProt Q8IZE3), the “dose-dependent thermal stabilisation call” value was inactive: 0.
To SCFD2 (UniProt Q8WU76) belongs inactive: 0; to RXRA (UniProt P19793), inactive: 0; to SAP18 (UniProt O00422), inactive: 0.

Values taken from the supplement of paper PMC7666118.
